Measurements reported in PMC7994381.
Substitutions are numbered along the chain they refer to. Numbers in names are those of the source. These are yes or no findings as the source states them, for the method shown. Binding seen in cells or lysates may run through a third protein. Some entries that bind do so weakly or less than the wild type. For part of these data: Where a sequence is shown, tags or fusion partners need not be part of it.

Amino acid sequences for entries named in this document (tags omitted).
UniProt P04198: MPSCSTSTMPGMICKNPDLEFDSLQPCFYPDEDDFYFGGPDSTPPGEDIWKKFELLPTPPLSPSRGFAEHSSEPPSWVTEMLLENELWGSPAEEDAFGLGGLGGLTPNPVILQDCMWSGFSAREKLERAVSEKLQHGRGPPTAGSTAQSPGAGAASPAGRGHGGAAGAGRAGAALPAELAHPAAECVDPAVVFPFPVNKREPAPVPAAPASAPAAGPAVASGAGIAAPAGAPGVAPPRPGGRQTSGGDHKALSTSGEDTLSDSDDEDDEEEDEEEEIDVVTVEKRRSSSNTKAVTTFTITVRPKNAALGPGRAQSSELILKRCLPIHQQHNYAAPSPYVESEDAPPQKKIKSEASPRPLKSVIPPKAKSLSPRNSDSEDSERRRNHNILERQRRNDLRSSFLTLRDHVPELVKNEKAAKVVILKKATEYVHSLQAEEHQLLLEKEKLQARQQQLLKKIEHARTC

Legend:
[1] = molecular target: HA-tagged full-length MYCN (amino acids 1–464) (human) (UniProt P04198); experiment: co-IP; HEK293T co-transfected with HA-MYCN and Flag-USP3^wt or Flag-USP3^C168S for 24 h; BC100 lysis buffer; HA-MYCN precipitated with HA antibody; blot for Flag-USP3
[2] = molecular target: endogenous MYCN (human (endogenous in Kelly and SK-N-BE(2)C)) (UniProt P04198); experiment: co-IP; endogenous proteins, total cellular protein extracts of Kelly and SK-N-BE(2)C; BC100 buffer; precipitated with MYCN-specific antibody or control IgG; blot for USP3

B1: Flag-USP3^wt (enzyme, UniProt Q9Y6I4 1-520)
chain: MECPHLSSSVCIAPDSAKFPNGSPSSWCCSVCRSNKSPWVCLTCSSVHCGRYVNGHAKKHYEDAQVPLTNHKKSEKQDKVQHTVCMDCSSYSTYCYRCDDFVVNDTKLGLVQKVREHLQNLENSAFTADRHKKRKLLENSTLNSKLLKVNGSTTAICATGLRNLGNTCFMNAILQSLSNIEQFCCYFKELPAVELRNGKTAGRRTYHTRSQGDNNVSLVEEFRKTLCALWQGSQTAFSPESLFYVVWKIMPNFRGYQQQDAHEFMRYLLDHLHLELQGGFNGVSRSAILQENSTLSASNKCCINGASTVVTAIFGGILQNEVNCLICGTESRKFDPFLDLSLDIPSQFRSKRSKNQENGPVCSLRDCLRSFTDLEELDETELYMCHKCKKKQKSTKKFWIQKLPKVLCLHLKRFHWTAYLRNKVDTYVEFPLRGLDMKCYLLEPENSGPESCLYDLAAVVVHHGSGVGSGHYTAYATHEGRWFHFNDSTVTLTDEETVVKAKAYILFYVEHQAKAGSDKL
B1 was tested, and the binding [1] was “binds”.

B2: Flag-USP3^C168S (enzyme, UniProt Q9Y6I4 1-520)
chain: B1 chain with C168S
B2 was tested, and the binding [1] was “binds”.

B3: endogenous USP3 (enzyme, UniProt Q9Y6I4 1-520)
chain: B1 chain
In the case of B3, the binding [2] is reported as “binds”.
